Out of some 340,000 compounds screened, about 6,200 (1.8%) were called active. Inconclusive results, whose numbers are uncertain, are shown with a selection of clear calls. The call rests on the fitted dose curve; in most records, active means well fitted activation curve with a large enough effect; inconclusive means small, poorly fitted or top-dose-only effect; inactive means no such curve, though single readings can be large or run the other way. Potencies beside an inconclusive call are fits to weak or partial responses and may not hold up.
Assay: A quantitative high throughput screen for small molecules that induce DNA re-replication in SW480 colon adenocarcinoma cells. Further: nearly all actives have a fitted effect of over 55% in size.
Conditions: Hoechst DNA content imaging, 48 h; series mostly up to 46.1 µM
Method in brief: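 Cells (250 per well) received 23 nL compound or DMSO by pin tool and were kept 48 hr at 37 C, 5% CO2. Nuclei were then stained with Hoechst for 40 min and scanned for DNA content.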
Potency means the concentration at half of the fitted maximal effect.

SMILES | Potency
CS(=O)(=O)N(Cc1ccc(C(=O)N2CCc3ccccc3C2)cc1)c1ccccc1 | inconclusive: 7.31 µM [activator, partial curve]
OCC1(CCc2ccccc2)CCN(C/C=C/c2ccccc2)CC1 | inconclusive: 23.1 µM [activator, single point]
CCC/C=C(\CCC)C(NC(=O)Cc1ccccc1)c1ccc(C(=O)OC)cc1 (centres undefined) | inconclusive: 20.6 µM [activator, partial curve, poor fit]
O=C(NC1CCCCC1)C(c1cccnc1)N(C(=O)CCl)c1ccccc1Cl (centres undefined) | inconclusive: 18.4 µM [activator, single point]
O=C(CCN1C(=O)/C(=C\C=C\c2ccccc2)SC1=S)Nc1ccc(C(=O)O)cc1 | inconclusive: 13 µM [activator, partial curve, poor fit]
CC(C)c1noc2ncc(C(=O)c3cc(Cl)cc(Cl)c3O)cc12 | inconclusive: 29.1 µM [activator, single point]
COc1ccc(C2Cc3ccccc3C(=O)O2)cc1 (centres undefined) | active: 20.6 µM
CCN(CC)S(=O)(=O)c1ccc(Cl)c(NC2=NCCCCC2)c1 | inconclusive: 0.184 µM [activator, single point]
Cc1ccc(Cl)cc1N1CCN(C(=O)CCCn2c(=O)c3cccn3c3cccnc32)CC1 | inconclusive: 9.2 µM [activator, partial curve, poor fit]
O=C(NCc1ccco1)c1c2c(nc3ccccc13)CCC2 | inconclusive: 29.1 µM [activator, single point]
O=C1c2oc3ccccc3c(=O)c2C(c2cccc(O)c2)N1CCCN1CCOCC1 (centres undefined) | inactive
CCC(C)(C(=O)Nc1ccccc1C)N(C(=O)CNC(C)=O)c1ccc(C)cc1 (centres undefined) | inconclusive: 29.1 µM [activator, partial curve, poor fit]
Cc1ccc(N2Cc3ccccc3C2=O)cc1 | inactive
OC(c1ccccc1)C(CN1CCOCC1)c1ccccc1 (centres undefined) | inconclusive: 29.1 µM [activator, single point]
CCOC(=O)Cc1c(C)nc2c(-c3ccccc3)c(-c3ccccc3)[nH]n2c1=O | inconclusive: 29.1 µM [activator, single point]
CC(O)CNc1ncnc2nc[nH]c12 (centres undefined) | inactive
CCCCCCSc1nsc(NC(=O)CCC)n1 | inactive
CC(C)c1ccccc1N=C1SCCCN1C(=O)c1cccc(N2C(=O)CCC2=O)c1 | inactive
O=C(NN=Cc1ccc2c(c1)OCO2)c1ccccc1 | inactive
O=C(C1COc2ccccc2O1)N1CCN(Cc2ccc3c(c2)OCO3)CC1 (centres undefined) | inactive
Cc1ccc(N(CC(=O)Nc2ccc3c(c2)OCCO3)S(=O)(=O)c2c(C)noc2C)cc1 | inactive
Cc1ccc2cc(CN(C(=O)c3cccs3)c3ccccc3)c(=O)[nH]c2c1 | inconclusive: 1.46 µM [activator, full curve]

SMILES | Potency
CNC1=C(N(C(C)=O)c2ccc(Br)cc2)C(=O)c2ccccc2C1=O | active: 8.2 µM
Clc1cccc(Cl)c1CNc1ccc(N2CCCC2)cc1 | inconclusive: 20.6 µM [activator, single point]
CC1CC(C)CN(CCCNC(=O)c2ccc(CNS(=O)(=O)c3ccc(F)cc3)cc2)C1 (centres undefined) | inactive
Cc1ccc(NC(=O)c2cnc(SCC(=O)NCC3CCCO3)n(C)c2=O)cc1C (centres undefined) | inconclusive: 14.1 µM [activator, single point]
COc1ccc(C(=O)NNC(=O)c2cc3ccccc3cc2O)cc1 | inconclusive: 18.4 µM [activator, single point]
O=C(O)c1ccccc1NS(=O)(=O)c1cccc(-n2sc3ccccc3c2=O)c1 | inconclusive: 23.1 µM [activator, single point]
COc1ccc(N=C2S/C(=C\c3cc(C)n(C)c3C)C(=O)N2C)cc1 | inconclusive: 20.6 µM [activator, single point]
N#C/C(=C/c1ccc(N2CCCCC2)o1)c1cccc(F)c1 | active: 8.2 µM
Cc1cc(NC(=O)CCC(=O)N(CC(=O)NCC2CCCO2)c2ccc(F)c(Cl)c2)no1 (centres undefined) | inactive
Cc1ccc(-c2cc(C(F)F)n3ncc(C(=O)N4CCCCC4c4cccnc4)c3n2)cc1 (centres undefined) | inconclusive: 29.1 µM [activator, single point]
O=C1NC(=O)C2(C=C(c3ccccc3)C(O)(c3ccccc3)C2)N1 (centres undefined) | inactive
CCOc1ccc(/C=N/NC(=O)COc2ccccc2-c2ccccc2)cc1 | inconclusive: 20.6 µM [activator, single point]
CCCCCCSc1cc(-c2nc3cnccn3c2NCCCC)ccc1OC | inconclusive: 25.9 µM [activator, single point]
Oc1ccc(C[C@H]2CNC(=S)N2CC2CCCN2C[C@H](Cc2ccc(O)cc2)N2C[C@H](Cc3ccc(O)cc3)N(CC3CCCCC3)C2=S)cc1 (some centres undefined) | inconclusive: 18.4 µM [activator, single point]
CCSC1=NCCN1C(=O)C(C)(C)Oc1ccc(Cl)cc1 | inconclusive: 4.11 µM [activator, full curve, poor fit]
C(=N\n1cnnc1)/c1ccccc1OCCOc1ccccc1 | inconclusive: 29.1 µM [activator, single point]
CSc1ccc(-c2nnn(CC(=O)NCc3ccccc3)n2)cc1 | inconclusive: 18.4 µM [activator, single point]
O=C(CSc1nccn(-c2ccc(Br)cc2)c1=O)NC1CCCC1 | inconclusive: 29.1 µM [activator, single point]
COc1ccc2nc(N3CCCC3)c(C#N)cc2c1 | inconclusive: 9.2 µM [activator, partial curve]
O=C(CSC1=N/C(=C/c2ccc(Cl)c(Cl)c2)C(=O)N1c1ccccc1F)NC1CC1 | inconclusive: 29.1 µM [activator, single point]
COc1ccc(/C=N/NC(=O)c2[nH]c3ccc(Br)cc3c2-c2ccccc2)cc1 | active: 1.16 µM
CCO/C=N/Nc1nc(C(F)(F)F)nc2c1cnn2Cc1ccccc1 | inconclusive: 20.6 µM [activator, single point]

Ordered by length of the SMILES (low to high): some entries from above
SMILES | Potency
O=C(NN=Cc1ccc2c(c1)OCO2)c1ccccc1 | inactive
O=C(C1COc2ccccc2O1)N1CCN(Cc2ccc3c(c2)OCO3)CC1 (centres undefined) | inactive
CC1CC(C)CN(CCCNC(=O)c2ccc(CNS(=O)(=O)c3ccc(F)cc3)cc2)C1 (centres undefined) | inactive

From PubChem BioAssay AID624297 (National Center for Advancing Translational Sciences (NCATS), 2012)
